Test results from PMC11536904.
No constants are given. Whether binding was seen depends on the method and setting. In cells and extracts the contact can be indirect. These calls come from enrichment with a bait or labelling near it, and not all partners need be listed.

Chains of the proteins cited; added tags and fusions are not shown.
UniProt Q9H4A3: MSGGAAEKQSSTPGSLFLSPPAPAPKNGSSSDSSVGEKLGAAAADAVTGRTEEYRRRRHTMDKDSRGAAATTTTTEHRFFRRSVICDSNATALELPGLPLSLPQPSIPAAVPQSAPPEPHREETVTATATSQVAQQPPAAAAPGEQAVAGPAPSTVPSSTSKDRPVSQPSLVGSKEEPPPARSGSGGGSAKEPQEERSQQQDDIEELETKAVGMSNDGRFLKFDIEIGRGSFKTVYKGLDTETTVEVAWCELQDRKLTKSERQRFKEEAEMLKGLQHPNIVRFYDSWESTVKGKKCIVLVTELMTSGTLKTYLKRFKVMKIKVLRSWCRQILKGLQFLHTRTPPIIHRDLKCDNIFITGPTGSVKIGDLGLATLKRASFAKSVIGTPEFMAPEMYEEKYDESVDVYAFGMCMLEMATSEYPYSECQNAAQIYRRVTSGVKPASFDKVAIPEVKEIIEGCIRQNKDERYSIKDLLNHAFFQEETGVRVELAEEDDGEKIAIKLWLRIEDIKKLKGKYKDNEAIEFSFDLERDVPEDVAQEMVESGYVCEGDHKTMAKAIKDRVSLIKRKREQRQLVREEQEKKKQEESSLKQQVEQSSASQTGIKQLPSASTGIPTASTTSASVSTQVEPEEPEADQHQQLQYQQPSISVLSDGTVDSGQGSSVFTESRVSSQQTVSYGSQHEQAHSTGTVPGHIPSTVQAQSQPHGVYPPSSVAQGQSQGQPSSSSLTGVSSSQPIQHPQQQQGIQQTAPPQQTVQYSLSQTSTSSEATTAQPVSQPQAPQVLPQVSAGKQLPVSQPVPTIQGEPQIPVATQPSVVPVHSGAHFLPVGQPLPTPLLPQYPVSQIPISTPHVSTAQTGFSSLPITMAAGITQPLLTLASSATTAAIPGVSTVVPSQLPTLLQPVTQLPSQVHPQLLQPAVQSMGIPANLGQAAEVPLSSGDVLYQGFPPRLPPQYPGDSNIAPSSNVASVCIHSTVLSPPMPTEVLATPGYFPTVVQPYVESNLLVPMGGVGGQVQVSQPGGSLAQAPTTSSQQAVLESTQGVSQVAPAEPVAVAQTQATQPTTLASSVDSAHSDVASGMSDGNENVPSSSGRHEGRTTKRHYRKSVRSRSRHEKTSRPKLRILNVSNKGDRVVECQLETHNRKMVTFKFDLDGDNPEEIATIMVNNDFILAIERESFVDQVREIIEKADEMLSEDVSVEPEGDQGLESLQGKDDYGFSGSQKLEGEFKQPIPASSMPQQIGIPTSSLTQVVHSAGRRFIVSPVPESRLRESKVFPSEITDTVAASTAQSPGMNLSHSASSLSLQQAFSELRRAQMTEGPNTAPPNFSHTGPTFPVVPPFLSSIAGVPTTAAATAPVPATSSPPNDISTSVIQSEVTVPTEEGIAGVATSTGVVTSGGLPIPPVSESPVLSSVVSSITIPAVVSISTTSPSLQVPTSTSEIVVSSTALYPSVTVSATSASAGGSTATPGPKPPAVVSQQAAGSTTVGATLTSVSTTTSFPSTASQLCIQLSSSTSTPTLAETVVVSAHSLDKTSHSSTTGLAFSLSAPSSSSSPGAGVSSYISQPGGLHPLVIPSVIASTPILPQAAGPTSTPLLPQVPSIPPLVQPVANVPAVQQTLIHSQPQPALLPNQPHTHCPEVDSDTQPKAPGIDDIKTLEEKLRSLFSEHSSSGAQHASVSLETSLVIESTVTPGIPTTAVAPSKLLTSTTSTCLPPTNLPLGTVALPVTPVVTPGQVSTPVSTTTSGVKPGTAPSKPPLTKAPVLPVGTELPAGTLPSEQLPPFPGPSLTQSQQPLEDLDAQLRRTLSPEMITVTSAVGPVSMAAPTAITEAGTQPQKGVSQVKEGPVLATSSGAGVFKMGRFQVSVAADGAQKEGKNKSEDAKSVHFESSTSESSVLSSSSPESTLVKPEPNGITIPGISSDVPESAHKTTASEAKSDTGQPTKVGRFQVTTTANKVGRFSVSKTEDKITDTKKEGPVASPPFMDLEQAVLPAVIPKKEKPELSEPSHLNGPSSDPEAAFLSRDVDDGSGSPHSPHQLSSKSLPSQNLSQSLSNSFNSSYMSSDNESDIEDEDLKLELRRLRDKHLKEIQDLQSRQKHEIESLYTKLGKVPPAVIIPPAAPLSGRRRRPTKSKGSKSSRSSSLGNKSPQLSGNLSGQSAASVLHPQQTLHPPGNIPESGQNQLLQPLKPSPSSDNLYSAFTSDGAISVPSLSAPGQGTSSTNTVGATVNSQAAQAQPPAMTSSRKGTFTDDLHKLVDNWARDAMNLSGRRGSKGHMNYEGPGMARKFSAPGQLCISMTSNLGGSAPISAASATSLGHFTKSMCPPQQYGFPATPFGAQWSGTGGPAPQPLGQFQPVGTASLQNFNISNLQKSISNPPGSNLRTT
UniProt Q96GD4: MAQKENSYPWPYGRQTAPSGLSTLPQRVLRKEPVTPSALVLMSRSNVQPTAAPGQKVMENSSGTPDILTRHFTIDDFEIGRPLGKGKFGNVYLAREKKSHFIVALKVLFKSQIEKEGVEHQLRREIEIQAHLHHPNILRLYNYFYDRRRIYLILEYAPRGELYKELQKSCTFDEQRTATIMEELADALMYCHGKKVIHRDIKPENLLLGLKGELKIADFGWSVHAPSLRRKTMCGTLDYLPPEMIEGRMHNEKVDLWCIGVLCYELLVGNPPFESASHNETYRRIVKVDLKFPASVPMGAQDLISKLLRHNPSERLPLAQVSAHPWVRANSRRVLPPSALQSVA

Molecular target: T1, Endogenous FOXF1 of human lung endothelial colony-forming cells (human (endogenous in hECFCs)) (UniProt Q12946)
T1 sequence: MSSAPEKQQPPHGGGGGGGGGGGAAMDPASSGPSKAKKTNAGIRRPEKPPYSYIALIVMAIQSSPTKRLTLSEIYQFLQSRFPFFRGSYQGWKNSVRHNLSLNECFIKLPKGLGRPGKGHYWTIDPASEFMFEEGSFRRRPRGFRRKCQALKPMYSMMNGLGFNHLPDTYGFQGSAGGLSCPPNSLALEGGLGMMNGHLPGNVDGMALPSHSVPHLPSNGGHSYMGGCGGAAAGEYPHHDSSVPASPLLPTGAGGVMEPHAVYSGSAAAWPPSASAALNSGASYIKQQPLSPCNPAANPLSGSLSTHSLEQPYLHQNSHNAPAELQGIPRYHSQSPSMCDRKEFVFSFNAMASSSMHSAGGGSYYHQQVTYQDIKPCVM
Assay: affinity purification with mass spectrometry; FOXF1 complexes enriched via immunoprecipitation from hECFCs; associating proteins identified by mass spectrometry (manuscript in preparation)

| binding | Substance |
| --- | --- |
| binds | WNK lysine deficient protein kinase 1 (from UniProt Q9H4A3 1-2382) (enzyme) |
| binds | aurora kinase B (from UniProt Q96GD4 1-344) (enzyme) |
